Reference: patent US8013137B2, “Modified enteropeptidase protein” (National University Corporation Hokkaido University, priority 2006, dated 2011)
The name of at least one read-out is uncertain.

Columns and labels:
Type in all cases: biochemical
GD4K-βNA = test: EP activity and kinetic study with specific substrate GD4K-βNA
Experimental: (A) Active recombinant EP proteases were assayed using a GD4K-βNA (SEQ ID NO: 6) substrate as a substrate. Bovine (Nvg), bovine EP protease available from Novagen; Bovine (Neb), bovine EP protease available from NEB. (B) Active recombinant EP proteases were assayed using various synthetic peptide substrates. (C) Active EP proteases were analyzed by gelatin zymography. (D) Fibronectin (4 μg) was incubated with active EPs (100 ng) at 37° C. for 12 h. (E) Laminin ((10 μg) was incubated with active recombinant EPs (100 ng) at 37° C. for 12 h. (F) Two μg of the control protein containing the D4K site (SEQ ID NO: 1) was incubated with active recombinant EPs (100 ng) at 37° C. for 1 h.
(A) The purity of purified recombinant Medaka EP-1 and EP-2 protease was assessed by SDS-PAGE. Lane 1, Medaka EP fusion protein; lane 2, Medaka EP protease treated with immobilized trypsin; lane 3, Medaka EP protease purified using a resource Q column. (B) The enzyme activities of EP proteases were determined at various pHs using GD4K-βNA (SEQ ID NO: 6) as a substrate. (C) Recombinant Medaka trypsinogen was incubated at 37° C. with EPs for 15, 30 and 45 min. After incubation, samples were analyzed by SDS-PAGE and visualized by CBB staining (upper panel). The relative amount of the active form of Medaka trypsin at each time point were calculated based on the results shown in the upper panel (lower panel). The results are presented as the means (±SD) of three separate experiments.
EP activity was routinely determined using the specific substrate Gly-Asp-Asp-Asp-Asp-Lys-β-naphthylamide (GD4K-βNA) (SEQ ID NO: 6) (Sigma) according to the method of Mikhailova and Rumsh (Mikhailova et al., FEBS Lett., 442:226-230 (1999)). Enzyme activity for various 4-methylcoumaryl-7-amide (MCA)-containing peptide substrates was determined by the method of Barrett (Barrett et al., J., Biochem. J., 187:909-912 (1980)). For kinetic studies, initial velocities, extrapolated from the plot of product versus time, were transformed into double-reciprocal plots (Lineweaver et al., J. Am. Chem. Soc., 56:658-663 (1934)). The maximum velocities (Vmax) and Km and kcat values were obtained from the intercepts of these plots. For all experiments, the results of at least three separate determinations are shown.

Z-Phe-Arg-MCA = test: Kinetic study with MCA-containing peptide substrate; settings: substrate Z-FR-MCA
[1] = test system: Boc-Glu(OBzl)-Ala-Arg-MCA; test: as above; settings: substrate Boc-E(OlBz)-AR-MCA
Pro-Phe-Arg-MCA = test: as above; settings: substrate PFR-MCA

B1: T105E: Medaka EP-1 protease mutant, substitution T105E (protein)
chain: CGQRQVYNSKENNGVPRVVGGVNAEKGAWPWMVSLHWRGRHGCGASLIGRDWLLTAAHCVYGKNTHLQYWSAVLGLHAQSSMNSQEVQIRQVDRIIINKNYNRREKEADIAMMHLQQPVNFTEWVLPVCLASEDQHFPAGRRCFIAGWGRDAEGGSLPDILQEAEVPLVDQDECQRLLPEYTFTSSMLCAGYPEGGVDSCQGDSGGPLMCLEDARWTLIGVTSFGVGCGRPERPGAYARVSAFTSWIAETRRSSFSDLD
- kcat/Km (GD4K-βNA): 10800 M⁻¹ s⁻¹
- kcat/Km (Z-Phe-Arg-MCA): 333 M⁻¹ s⁻¹
- kcat/Km [1]: 150 M⁻¹ s⁻¹
- kcat/Km (Pro-Phe-Arg-MCA): 200 M⁻¹ s⁻¹

B2: P193E: Medaka EP-1 protease mutant, substitution P193E (protein)
chain: CGQRQVYNSKENNGVPRVVGGVNAEKGAWPWMVSLHWRGRHGCGASLIGRDWLLTAAHCVYGKNTHLQYWSAVLGLHAQSSMNSQEVQIRQVDRIIINKNYNRRTKEADIAMMHLQQPVNFTEWVLPVCLASEDQHFPAGRRCFIAGWGRDAEGGSLPDILQEAEVPLVDQDECQRLLPEYTFTSSMLCAGYEEGGVDSCQGDSGGPLMCLEDARWTLIGVTSFGVGCGRPERPGAYARVSAFTSWIAETRRSSFSDLD
- kcat/Km (GD4K-βNA): 12200 M⁻¹ s⁻¹
- kcat/Km (Z-Phe-Arg-MCA): 150 M⁻¹ s⁻¹
- kcat/Km [1]: 200 M⁻¹ s⁻¹
- kcat/Km (Pro-Phe-Arg-MCA): 450 M⁻¹ s⁻¹

B3: Porcine: active recombinant enzyme of the porcine EP serine protease domain (Ile800 to His1034) (protein)
chain: IVGGNDSREGAWPWVVALYYNGQLLCGASLVSRDWLVSAAHCVYGRNLEPSKWKAILGLHMTSNLTSPQIVTRLIDEIVINPHYNRRRKDSDIAMMHLEFKVNYTDYIQPICLPEENQVFPPGRICSIAGWGKVIYQGSPADILQEADVPLLSNEKCQQQMPEYNITENMMCAGYEEGGIDSCQGDSGGPLMCLENNRWLLAGVTSFGYQCALPNRPGVYARVPKFTEWIQSFLH
- kcat/Km (GD4K-βNA): 21670 M⁻¹ s⁻¹
- kcat/Km (Z-Phe-Arg-MCA): 4670 M⁻¹ s⁻¹
- kcat/Km [1]: 6170 M⁻¹ s⁻¹
- kcat/Km (Pro-Phe-Arg-MCA): 1280 M⁻¹ s⁻¹

B4: Bovine (Nvg): bovine EP protease available from Novagen (protein)
chain: IVGGSDSREGAWPWVVALYFDDQQVCGASLVSRDWLVSAAHCVYGRNMEPSKWKAVLGLHMASNLTSPQIETRLIDQIVINPHYNKRRKNNDIAMMHLEMKVNYTDYIQPICLPEENQVFPPGRICSIAGWGALIYQGSTADVLQEADVPLLSNEKCQQQMPEYNITENMVCAGYEAGGVDSCQGDSGGPLMCQENNRWLLAGVTSFGYQCALPNRPGVYARVPRFTEWIQSFLH
- kcat/Km (GD4K-βNA): 16000 M⁻¹ s⁻¹
- kcat/Km (Z-Phe-Arg-MCA): 23330 M⁻¹ s⁻¹
- kcat/Km [1]: 25000 M⁻¹ s⁻¹
- kcat/Km (Pro-Phe-Arg-MCA): 3330 M⁻¹ s⁻¹

B5: Bovine (Neb): bovine EP protease available from NEB (protein)
chain: IVGGSDSREGAWPWVVALYFDDQQVCGASLVSRDWLVSAAHCVYGRNMEPSKWKAVLGLHMASNLTSPQIETRLIDQIVINPHYNKRRKNNDIAMMHLEMKVNYTDYIQPICLPEENQVFPPGRICSIAGWGALIYQGSTADVLQEADVPLLSNEKCQQQMPEYNITENMVCAGYEAGGVDSCQGDSGGPLMCQENNRWLLAGVTSFGYQCALPNRPGVYARVPRFTEWIQSFLH
- kcat/Km (GD4K-βNA): 50000 M⁻¹ s⁻¹
- kcat/Km (Z-Phe-Arg-MCA): 25000 M⁻¹ s⁻¹
- kcat/Km [1]: 23330 M⁻¹ s⁻¹
- kcat/Km (Pro-Phe-Arg-MCA): 7500 M⁻¹ s⁻¹

B6: K63R: Medaka EP-1 protease mutant, substitution K63R (protein)
chain: CGQRQVYNSKENNGVPRVVGGVNAEKGAWPWMVSLHWRGRHGCGASLIGRDWLLTAAHCVYGRNTHLQYWSAVLGLHAQSSMNSQEVQIRQVDRIIINKNYNRRTKEADIAMMHLQQPVNFTEWVLPVCLASEDQHFPAGRRCFIAGWGRDAEGGSLPDILQEAEVPLVDQDECQRLLPEYTFTSSMLCAGYPEGGVDSCQGDSGGPLMCLEDARWTLIGVTSFGVGCGRPERPGAYARVSAFTSWIAETRRSSFSDLD
- kcat/Km (GD4K-βNA): 18330 M⁻¹ s⁻¹
- kcat/Km (Z-Phe-Arg-MCA): 233 M⁻¹ s⁻¹
- kcat/Km [1]: 167 M⁻¹ s⁻¹
- kcat/Km (Pro-Phe-Arg-MCA): 167 M⁻¹ s⁻¹
